Results from US20190194345A1 (UNIVERSITY OF VIRGINIA PATENT FOUNDATION, published 2019).
Results are given in words; binding and its absence hold for the method and conditions named. Some entries that bind do so weakly or less than the wild type.

Columns and labels:
[1] = target: T1, human SAS1B (recombinant antigen) (human) (UniProt Q6HA08); experiment: western blot of human SAS1B and mouse SAS1B
T1 sequence: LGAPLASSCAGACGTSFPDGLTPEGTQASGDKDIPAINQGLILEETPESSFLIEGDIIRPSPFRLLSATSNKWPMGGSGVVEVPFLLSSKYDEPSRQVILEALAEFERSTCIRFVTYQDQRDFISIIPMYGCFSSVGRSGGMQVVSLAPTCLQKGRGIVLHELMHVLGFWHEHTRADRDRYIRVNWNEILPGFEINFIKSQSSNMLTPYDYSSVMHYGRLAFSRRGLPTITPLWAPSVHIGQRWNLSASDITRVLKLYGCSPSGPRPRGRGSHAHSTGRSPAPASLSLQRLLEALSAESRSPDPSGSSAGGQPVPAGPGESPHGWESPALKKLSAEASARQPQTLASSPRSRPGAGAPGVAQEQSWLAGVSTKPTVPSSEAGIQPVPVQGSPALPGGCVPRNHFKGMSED

[2] = target: T1, human SAS1B (recombinant antigen) (human); experiment: summary table: specifically binds human SAS1B (and not mouse SAS1B)
[3] = target: T2, endogenous SAS1B extracted from cancer cells (human) (UniProt Q6HA08); experiment: western blot of uterine cancer cell extract (FIG. 23)
T2 sequence: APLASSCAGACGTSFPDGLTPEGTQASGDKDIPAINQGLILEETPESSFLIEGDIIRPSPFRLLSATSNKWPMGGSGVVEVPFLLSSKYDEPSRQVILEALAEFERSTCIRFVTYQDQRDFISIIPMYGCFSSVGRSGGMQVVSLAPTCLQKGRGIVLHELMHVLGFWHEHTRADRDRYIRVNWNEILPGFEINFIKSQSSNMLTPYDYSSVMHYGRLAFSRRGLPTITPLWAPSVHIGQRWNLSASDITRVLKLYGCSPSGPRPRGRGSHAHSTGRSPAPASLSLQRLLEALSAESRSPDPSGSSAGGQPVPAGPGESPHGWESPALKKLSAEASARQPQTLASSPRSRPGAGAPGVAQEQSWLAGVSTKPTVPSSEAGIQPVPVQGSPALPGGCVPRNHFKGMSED

[4] = target: T3, SAS1B on the surface of live cancer cells (human) (UniProt Q6HA08); experiment: live cell indirect immunofluorescence
T3 sequence: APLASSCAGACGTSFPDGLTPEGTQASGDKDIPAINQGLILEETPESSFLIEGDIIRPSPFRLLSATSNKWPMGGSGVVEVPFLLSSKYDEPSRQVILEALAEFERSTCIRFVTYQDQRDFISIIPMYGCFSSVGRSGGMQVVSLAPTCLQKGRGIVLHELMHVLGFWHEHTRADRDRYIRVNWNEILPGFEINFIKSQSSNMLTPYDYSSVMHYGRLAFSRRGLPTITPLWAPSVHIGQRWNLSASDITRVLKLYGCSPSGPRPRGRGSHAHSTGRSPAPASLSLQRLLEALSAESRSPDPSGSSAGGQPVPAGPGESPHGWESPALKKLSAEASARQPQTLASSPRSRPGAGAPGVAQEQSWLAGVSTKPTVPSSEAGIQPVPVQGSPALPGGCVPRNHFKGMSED

[5] = target: T3, SAS1B on the surface of live cancer cells (human); experiment: live cell immunofluorescence, MPanc96 and 366 cells, 20 ug/mL
[6] = target: T2, endogenous SAS1B extracted from cancer cells (human); experiment: western blot, figure legend of FIG. 23
[7] = target: T2, endogenous SAS1B extracted from cancer cells (human); experiment: western blot of SNU539 RIPA extract, mAb at 3 ug/ml
[8] = target: T3, SAS1B on the surface of live cancer cells (human); experiment: live cell indirect immunofluorescence, M1 and MMMT539 cells
[9] = target: T3, SAS1B on the surface of live cancer cells (human); experiment: confocal immunofluorescence, figure legend of FIG. 25
[10] = target: T3, SAS1B on the surface of live cancer cells (human); experiment: confocal immunofluorescence on live cells (FIG. 25)
[11] = target: T2, endogenous SAS1B extracted from cancer cells (human); experiment: 2-D gel western blot of SNU539 lysate
mouse SAS1B [12] = target: T4, mouse SAS1B (mouse, UniProt Q6HA09 24-435, limits assumed); experiment: western blot of human SAS1B and mouse SAS1B
T4 sequence (looked up): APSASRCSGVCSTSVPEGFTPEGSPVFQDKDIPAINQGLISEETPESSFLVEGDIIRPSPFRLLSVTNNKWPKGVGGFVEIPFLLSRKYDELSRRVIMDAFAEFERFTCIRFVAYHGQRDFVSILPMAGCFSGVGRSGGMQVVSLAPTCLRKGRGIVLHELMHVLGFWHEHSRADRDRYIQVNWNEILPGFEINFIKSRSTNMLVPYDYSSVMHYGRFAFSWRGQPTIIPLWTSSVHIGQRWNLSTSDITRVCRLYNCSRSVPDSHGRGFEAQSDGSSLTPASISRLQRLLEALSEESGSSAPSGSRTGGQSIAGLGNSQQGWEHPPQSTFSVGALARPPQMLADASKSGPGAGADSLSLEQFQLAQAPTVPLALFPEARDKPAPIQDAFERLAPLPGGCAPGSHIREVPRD

mouse SAS1B [13] = target: T4, mouse SAS1B; experiment: summary table: specifically binds mouse and human SAS1B
[14] = target: T1, human SAS1B (recombinant antigen) (human); experiment: as above

Measured: binding

B1: anti-human SAS1B murine monoclonal antibody SB4 (antibody, IgG2a, V domains shown)
VH: EVQLQQSGPELVKPGSSVKISCKPSGYTFTDYNMVWMKQSHGKSLEWIGAINPNNGGTTYNQKFKGKATLTVDKSSSTAYMELRSLTSEDSAVYYCAPNWDWFAYWGQGTLVTVSA
VL: DVLMTQTPLSLPVSLGDQASISCRSSQSILHSNGNTYLEWYLQKPGQSPKLLIYKVSNRFSGVPDRFSGSGSGTDFTLKISRVEAEDLGVYYCFQGSHVPFTFGSGTKLEIK
notes: Mouse hybridoma antibody, isotype IgG2a-k; also called SB4 mAb
binds: [1] | [2] | [3] | [4] | [5] | [6] | [7] | [8]

B2: anti-human SAS1B murine monoclonal antibody SB3 (antibody, IgG2b, V domains shown)
VH: EVQLQQSGPELVKPGSSVKISCKASGYTFTDYNMVWVKQSHGKSLEWIGAVNPNNGGTSYNQKFKGKATLTVDKSSSTAYMELRSLTSEDSAVYYCVPNWDWFAYWGQGTLVTVSA
VL: DVLMTQTPLSLPVSLGDQASISCRSSQSLVHSNGNTYLEWYLQKPGQSPNLLIYKVSNRFSGVPDRFSGSGSGTDFTLKISRVEAEDLGVYYCFQGSHVPFTFGSGTKLEIK
notes: also called SB3 mAb
binds: [1] | [2] | [3] | [4] | [6] | [8]

B3: anti-human SAS1B murine monoclonal antibody SB2 (antibody, IgG2b, V domains shown)
VH: EVQLQQSGPELVKPGSSVKISCKASGYTFTDYNMVWVKQSHGKSLEWIGAVNPNNGGTSYNQKFKGKATLTVDKSSSTAYMELRSLTSEDSAVYYCVPNWDWFAYWGQGTLVTVSA
VL: DVLMTQTPLSLPVSLGDQASISCRSSQSLVHSNGNTYLEWYLQKPGQSPNLLIYKVSNRFSGVPDRFSGSGSGTDFTLKISRVEAEDLGVYYCFQGSHVPFTFGSGTKLEIK
notes: also called SB2 mAb
not listed: [5] | [11] | mouse SAS1B [12] | mouse SAS1B [13] | [14]
binds: all other assays above

B4: anti-human SAS1B murine monoclonal antibody SB6 (antibody, IgG2b, V domains shown)
VH: EVQLQQSGPELVKPGSSVKISCKPSGYTFTDYNMVWMKQSHGKSLEWIGAINPNNGGTTYNQKFKGKATLTVDKSSSTAYMELRSLTSEDSAVYYCAPNWDWFAYWGQGTLVTVSA
VL: DVLMTQIPLSLPVSLGDQASISCRSSQSILHSNGNTYLEWYLQKPGQSPKLLIYKVSNRFSGVPDRFSGSGSGTDFTLKISRVEAEDLGVYYCFQGSHVPFTFGSGTKLEIK
binds: [1] | [2]

B5: anti-human SAS1B murine monoclonal antibody SB5 (antibody, IgG2b, V domains shown)
VH: EVQLQQSGPELVKPGSSVKISCKPSGYTFTDYNMVWMKQSHGKSLEWIGAINPNNGGTTYNQKFKGKATLTVDKSSSTAYMELRSLTSEDSAVYYCAPNWDWFAYWGQGTLVTVSA
VL: DVLMTQIPLSLPVSLGDQASISCRSSQSILHSNGNTYLEWYLQKPGQSPKLLIYKVSNRFSGVPDRFSGSGSGTDFTLKISRVEAEDLGVYYCFQGSHVPFTFGSGTKLEIK
notes: Mouse hybridoma antibody, isotype IgG2b-k; also called SB5 mAb
not listed: [9] | [10] | mouse SAS1B [12] | mouse SAS1B [13] | [14]
binds: all other assays above

B6: anti-human SAS1B murine monoclonal antibody SB7 (antibody, IgG2b, V domains shown)
VH: EVQLQQSGPELVKPGSSVKISCKPSGYTFTDYNMVWMKQSHGKSLEWIGAINPNNGGTTYNQKFKGKATLTVDKSSSTAYMELRSLTSEDSAVYYCAPNWDWFAYWGQGTLVTVSA
VL: DVLMTQIPLSLPVSLGDQASISCRSSQSILHSNGNTYLEWYLQKPGQSPKLLIYKVSNRFSGVPDRFSGSGSGTDFTLKISRVEAEDLGVYYCFQGSHVPFTFGSGTKLEIK
binds: [1] | [2]

B7: anti-human SAS1B murine monoclonal antibody SB1 (antibody, IgG2a, V domains shown)
VH: EVQLQQSGPELVKPGSSVKISCKASGYTFTDYNMDWVKQSHGKSLEWIGAINPNNGGTSYNQKFKGKATLTVDKSSSTAYMELRSLTSEDSAVYYCATNEYWGQGTTLTVSS
VL: NIVMTQSPKSMSMSVGERVTLSCKASENVGTYVSWYQQKPEQSPKLLIYGASNRYTGVPDRFTGSGSATDFTLTISSVQAEDLADYHCGQSYSYPWTFGGGTKLEIK
notes: also called SB1 mAb
binds: mouse SAS1B [12] | [1] | mouse SAS1B [13] | [14]
